According to US6511804B1, “Selective assay for determining the identity of live microorganisms in a mixed culture” (priority 1998, dated 2003):
At least one compound was matched to its structure with a doubt left.

Assays:
[1] = test system: Porphyromonas gingivalis (ATCC No. 33277); experiment: BrdU immunocapture/PCR antibiotic sensitivity of Porphyromonas gingivalis; settings: FIG. 7
[2] = test system: T. denticola (ATCC number 35405); experiment: BrdU immunocapture/PCR antibiotic sensitivity of Treponema denticola; assay type: cell-based; settings: FIG. 9
Method: Treponema denticola was also studied using the invention. In these studies, a culture of T. denticola (ATCC number 35405) was inoculated into fresh media and grown anaerobically for 1 day in NOS media (ATCC media formulation 1494). The cultures were grown as in Part A of this Example, except that the cultures were incubated for about 8 hours prior to the addition of BrdU, they were incubated overnight after the addition of BrdU, and the samples were analyzed the next day. The PCR was conducted in the manner described above, except that a GroEL primer set was not available and a primer set for the FlgE gene (endoflagellar subunit protein) referred to FlgE001 and FlgE006 was substituted. These primers were expected to give rise to a 542 bp PCR fragment.

[3] = test system: H. actinomycetemcomitans (ATCC No. 43718); experiment: BrdU immunocapture/PCR antibiotic sensitivity of H. actinomycetemcomitans; assay type: cell-based, Haemophilus actinomycetemcomitans; settings: anaerobic culture; FIG. 8
Method: H. actinomycetemcomitans is reported to be a human pathogen, and has been implicated in juvenile periodontitis. In these studies, a culture of H. actinomycetemcomitans (ATCC No. 43718; previously known as Actinobacillus actinomycetemcomitans) was grown to saturation under anaerobic conditions as in part A, above, except that hemin was not added to the medium. The culture was diluted 1:10 into fresh media, and grown for a further 4 hours under anaerobic conditions. At this point, the culture was divided into aliquots and subjected to the same testing protocol as was employed in part A of this Example, except that after the BrdU was added, the 2 hour incubation was followed for convenience by overnight storage under refrigeration at 4° C. The next day, the aliquoted cultures were lysed by the NaOH lysis protocol described above, PCR was performed, and the capture probe set forth in Table 1 for this organism was employed.

CN(C)[C@@H]1C(O)=C(C(N)=O)C(=O)[C@@]2(O)C(O)=C3C(=O)c4c(O)cccc4[C@@](C)(O)[C@H]3C[C@@H]12 [tetracycline]
immunocapture/PCR signal ([1]; P. gingivalis): light signal
sensitivity or resistance of P. gingivalis ([1]; anaerobic culture, 2 hours antibiotic then 2 hours BrdU): sensitive
BrdU incorporation / immunocapture PCR signal ([2]; T. denticola): affects BrdU incorporation into T. denticola DNA
sensitivity or resistance of T. denticola ([2]; anaerobic culture, no negative immunocapture control): sensitive
sensitivity or resistance of H. actinomycetemcomitans [3]: sensitivity
